Laboratory results taken from paper PMC11110256.

The chains behind the UniProt entries cited, without tags or fusion partners.
UniProt O35129: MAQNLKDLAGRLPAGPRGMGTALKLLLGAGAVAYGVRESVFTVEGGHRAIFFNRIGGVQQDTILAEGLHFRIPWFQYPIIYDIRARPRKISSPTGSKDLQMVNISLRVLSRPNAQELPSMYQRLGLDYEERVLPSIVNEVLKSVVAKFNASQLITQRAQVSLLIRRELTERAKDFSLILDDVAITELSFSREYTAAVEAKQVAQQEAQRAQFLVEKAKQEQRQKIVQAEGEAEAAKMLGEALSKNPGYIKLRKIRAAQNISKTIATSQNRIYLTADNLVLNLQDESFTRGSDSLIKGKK

T1: UBX domain-containing protein 1 (UBXN1), immunoprecipitated from mouse Hepa1-6 cells (UniProt Q922Y1)
T1 sequence: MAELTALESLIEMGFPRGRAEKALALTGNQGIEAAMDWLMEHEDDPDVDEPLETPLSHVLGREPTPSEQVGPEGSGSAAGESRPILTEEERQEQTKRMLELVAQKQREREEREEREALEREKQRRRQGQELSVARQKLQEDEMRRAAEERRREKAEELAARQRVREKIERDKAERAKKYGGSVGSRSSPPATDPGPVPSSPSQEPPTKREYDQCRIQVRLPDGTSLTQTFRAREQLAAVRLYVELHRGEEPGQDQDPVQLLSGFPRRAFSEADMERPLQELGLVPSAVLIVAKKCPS


Molecular target: T1, UBX domain-containing protein 1 (UBXN1), immunoprecipitated from mouse Hepa1-6 cells
Assay: affinity purification with mass spectrometry; UBXN1 immunoprecipitated from lysates of MHCC97H and Hepa1-6 cells, SDS-PAGE, Coomassie stain, LC-MS/MS; hits with unique peptides > 2 in both cell lines

binding	Molecule
binds	Prohibitin 2 (PHB2), in mouse Hepa1-6 cells (from UniProt O35129 1-299)
binds	Prohibitin (PHB), in mouse Hepa1-6 cells (protein, UniProt P67778 1-272) MAAKVFESIGKFGLALAVAGGVVNSALYNVDAGHRAVIFDRFRGVQDIVVGEGTHFLIPWVQKPIIFDCRSRPRNVPVITGSKDLQNVNITLRILFRPVASQLPRIYTSIGEDYDERVLPSITTEILKSVVARFDAGELITQRELVSRQVSDDLTERAATFGLILDDVSLTHLTFGKEFTEAVEAKQVAQQEAERARFVVEKAEQQKKAAIISAEGDSKAAELIANSLATAGDGLIELRKLEAAEDIAYQLSRSRNITYLPAGQSVLLQLPQ

Results are given in words; binding and its absence hold for the method and conditions named. Binding seen in cells or lysates may run through a third protein. Here binding means that the protein was enriched with, or labelled near, the bait; the list need not be complete.
